Test results reported in US10239933B2, “Compositions and methods for modulating thrombin generation” (The Children's Hospital of Philadelphia, priority 2011, dated 2019).
pKd: −log10 of the molar value. For at least one compound, name, drawing or mass did not settle the structure. * marks the point of attachment. X2 = CN(c1ccccc1)c1ccc2c(-c3ccccc3S(=O)(=O)N3CCC(C(=O)NCCCCCN4C(=O)CC(*)C4=O)CC3)c3ccc(=[N+](C)c4ccccc4)cc-3oc2c1

Experiments:
FV-810 = target: T1, FV-810 (Homo sapiens, UniProt P12259, DEL839-1519); assay: Analytical ultracentrifugation (sedimentation velocity) of QSY7-BR with FV-810; assay type: binding; settings: FV-810 in buffer containing 10 mM EDTA; read-out: Kd, sedimentation velocity control
T1 construct: amino acids 1-28 are a signal peptide that is cleaved and numbering begins at residue 29; made in house
Procedure: Analytical ultracentrifugation of QSY7 C5-maleimide-modified BR (QSY7-BR) was performed in a Beckman Optima XL-I analytical ultracentrifuge using absorbance optics. Sedimentation velocity was measured at 25,000 or 45,000 rpm with two-sector cells in an An-60 Ti rotor at 20° C. Sedimentation of QSY7-BR was followed measuring absorbance at 560 nm in cells containing 5 μM QSY7-BR alone or with 7 μM FV-810 or rFVa in 20 mM HEPES, 150 mM NaCl, and 2 mM CaCl2, pH 7.4. Sedimentation coefficients and molecular weights were determined by g(s*) analysis performed using DCDT+ (Philo, J. S. (2000) Anal. Biochem., 279:151-163).

rFVa = target: T2, rFVa (Homo sapiens, UniProt P12259); assay: Analytical ultracentrifugation (sedimentation velocity) of QSY7-BR with rFVa; assay type: binding; settings: read-out: Kd, sedimentation velocity control
T2 construct: thrombin rapidly cleaves Factor V at Arg709 to produce heavy chain (HC); rapidly cleaves at Arg1018 and Arg1545 to produce light chain (LC); made in house
T2 sequence (P12259 29-737 limits assumed): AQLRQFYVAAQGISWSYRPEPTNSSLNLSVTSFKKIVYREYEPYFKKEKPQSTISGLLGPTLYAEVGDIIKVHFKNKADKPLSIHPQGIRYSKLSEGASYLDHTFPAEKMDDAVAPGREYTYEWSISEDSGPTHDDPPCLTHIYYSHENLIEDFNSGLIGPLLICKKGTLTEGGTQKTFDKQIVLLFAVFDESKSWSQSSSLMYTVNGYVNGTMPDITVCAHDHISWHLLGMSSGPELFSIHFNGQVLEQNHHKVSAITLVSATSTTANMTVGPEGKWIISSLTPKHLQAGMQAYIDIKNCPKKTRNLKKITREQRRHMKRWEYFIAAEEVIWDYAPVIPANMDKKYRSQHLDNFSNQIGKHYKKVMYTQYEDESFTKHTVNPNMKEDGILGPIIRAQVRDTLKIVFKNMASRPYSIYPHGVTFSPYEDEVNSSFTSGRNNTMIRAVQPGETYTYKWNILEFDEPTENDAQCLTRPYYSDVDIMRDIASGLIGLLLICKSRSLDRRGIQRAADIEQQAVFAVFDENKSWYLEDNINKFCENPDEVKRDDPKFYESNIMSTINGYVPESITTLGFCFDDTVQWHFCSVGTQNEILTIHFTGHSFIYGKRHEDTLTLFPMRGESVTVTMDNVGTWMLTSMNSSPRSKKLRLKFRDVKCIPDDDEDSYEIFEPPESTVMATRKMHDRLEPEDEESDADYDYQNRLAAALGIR
T2 sequence (P12259 1574-2224 limits assumed): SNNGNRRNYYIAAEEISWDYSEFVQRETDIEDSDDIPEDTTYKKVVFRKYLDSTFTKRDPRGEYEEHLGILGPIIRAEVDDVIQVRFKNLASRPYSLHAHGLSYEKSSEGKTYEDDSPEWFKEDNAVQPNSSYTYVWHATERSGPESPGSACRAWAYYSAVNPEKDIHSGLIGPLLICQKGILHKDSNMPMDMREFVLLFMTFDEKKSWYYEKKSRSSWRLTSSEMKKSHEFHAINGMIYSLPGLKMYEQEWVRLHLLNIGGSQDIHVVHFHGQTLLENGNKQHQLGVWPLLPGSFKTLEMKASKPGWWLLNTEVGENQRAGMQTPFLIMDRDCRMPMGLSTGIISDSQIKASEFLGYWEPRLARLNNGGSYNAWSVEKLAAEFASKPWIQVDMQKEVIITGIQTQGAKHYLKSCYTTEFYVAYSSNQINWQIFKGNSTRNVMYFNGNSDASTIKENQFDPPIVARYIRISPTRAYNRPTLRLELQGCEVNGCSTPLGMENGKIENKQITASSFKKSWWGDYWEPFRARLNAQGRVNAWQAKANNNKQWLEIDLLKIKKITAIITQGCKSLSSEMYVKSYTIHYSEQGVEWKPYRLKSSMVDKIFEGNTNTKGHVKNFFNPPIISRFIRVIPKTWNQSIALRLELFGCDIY

## H-C(X2)SRAWGESTPLANKPGKQSGHPKFPRVRHKSLQVRQDGGKSRLKKSQFLIKTRKKKKEK-OH [QSY7-BR]
FV-810
  pKd: ≤ 6.00
rFVa
  pKd: ≤ 6.00
